In US20060167057A1, “Compounds for the treatment of CNS and amyloid associated diseases” (priority 2004, published 2006):
Some entries share one result that the patent states for a list of compounds.

By UniProt entry, the sequences of proteins in these tests, tags left out. Where a name states a change or a piece, a line headed by the entry shows the natural chain unless it says otherwise.
UniProt Q63016: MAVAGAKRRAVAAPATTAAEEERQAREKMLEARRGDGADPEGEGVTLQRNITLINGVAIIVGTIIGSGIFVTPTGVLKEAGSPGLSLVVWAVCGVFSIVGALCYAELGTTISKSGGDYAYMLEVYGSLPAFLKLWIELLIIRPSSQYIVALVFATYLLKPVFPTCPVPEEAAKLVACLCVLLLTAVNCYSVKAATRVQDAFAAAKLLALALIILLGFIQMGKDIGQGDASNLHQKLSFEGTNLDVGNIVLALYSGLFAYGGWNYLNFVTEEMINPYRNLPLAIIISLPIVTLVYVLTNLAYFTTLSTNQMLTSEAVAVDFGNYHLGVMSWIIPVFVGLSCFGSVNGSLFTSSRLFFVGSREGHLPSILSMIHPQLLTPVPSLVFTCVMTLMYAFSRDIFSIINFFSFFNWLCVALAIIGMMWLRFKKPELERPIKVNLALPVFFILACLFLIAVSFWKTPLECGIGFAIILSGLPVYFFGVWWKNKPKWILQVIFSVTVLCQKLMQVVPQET

Target: T1, L1 transport system (large neutral amino acid carrier, L1-system carrier) (Rattus norvegicus, UniProt Q63016)
T1 construct: functionality of their endogenous transporters such as the L1-system carrier; endogenous in cells; host or cells: rat primary cerebrovascular (brain microcapillary) endothelial cells, RBEC
Assay: Competitive binding assay to the brain L1 transport system (L-[U-14C]phenylalanine on rat primary cerebrovascular endothelial cells)
Details: all 3 concentrations tested (10^−6, 10^−5, 10^−4 M)
Procedure: Compound samples in PBS (without Ca^+2, Mg^+2)-glucose 30 mM-HEPES 10 mM—DMSO 1% as prepared in Example 1 were thawed and left for at least 30 minutes at 20-23° C. before preparation of the following sub-dilutions for the competitive binding assay: • 200 μL of the stock solution were added to 800 μL PBS (without Ca^+2, Mg^+2)-Glucose-HEPES-1% DMSO (PBSD-1) [diluted 1:5 for a final 1:5 dilution] • 100 μL (1/5 dilution above) were added to 900 μL PBSD-1 [diluted 1:10 for a final 1:50 dilution] • 100 μL (1/50 dilution above) were added to 900 μL PBSD-1 [diluted 1:10 for a final 1:500 dilution]
These sub-dilutions were used immediately or stored overnight at 4° C. before the competitive binding assay. A volume of 45 μL of each of the compound dilutions (1:5, 1:50, 1:500) in PBSD-1 was added to the appropriate wells in the dilution plate.
Brains from sixty 24-day-old rats were dissected individually on a sterile lint moistened with ice cold Hanks' balanced salt solution (Gibco BRL, Grand Island, N.Y.) containing 10 mM HEPES (medium 1) supplemented with 0.1% BSA. Cerebellum, striatum, optic nerves, and brain stem (white matter) were removed. After a mid-sagittal section of the brain, the meninges and leptomeningeal debris were removed by rolling a sterile dry cotton swab on the cortices. (Ichikawa N, Naora K, Hirano H, Hashimoto M, Masumura S, and Iwamoto K (1996). Isolation and primary culture of rat cerebral microvascular endothelial cells for studying drug transport in vitro. J Pharmacol Toxicol Meth 36: 45-52.). Clean cortices were minced in pieces of ≈2 mm^3 in 15 mL of ice-cold medium 1-0.1% BSA. The preparation was divided into 4 sterile pre-weighed tubes and centrifuged at 330× g at 20-25° C. for 5 min. Tubes were weighed and pre-warmed (37° C.) and medium 1 with 0.5% BSA containing 0.3% collagenase and 10 μg/mL DNAse 1 (Roche, Laval, Quebec, Canada) were added to each tube (1 mL/g of tissue).
The brain-collagenase mixture was vigorously agitated in a water bath at 37° C. for 90 min. Fifteen min before the end of the digestion, the tissue was homogenized using a 10-mL pipette until a creamy mixture was obtained (≈20 aspirations). Cells were washed by adding medium 1 with 0.1% BSA to the homogenate (26 mL/tube) and centrifuged at 100× g at 20-25° C. for 7 min. This washing step was repeated 3 more times, once for 5 min and twice for 3 min. Each pellet was re-suspended in 25 mL of a 15% dextran solution prepared in medium 1 with 0.1% BSA and centrifuged at 3200× g at 4° C. for 25 min to isolate vessels from neural tissue and dextran layers. Vascular pellets were re-suspended in 5 mL Ca^++—Mg^++-free-medium 1 with 0.1% BSA (medium 2) at 20-25° C. and transferred in a 50-mL tube. Remaining vessels were collected by rinsing the tubes and pooling the rinsing suspension. (Rupnick M A, Carey A, and Williams S K (1988). Phenotypic diversity in cultured cerebral microvascular endothelial cells in vitro. Cell Develop Biol 24: 435-444.)
The vascular preparation was filtered and rinsed (20 mL of medium 2) through a sterile 355-μm mesh. The 355-μm filtrate was sequentially filtered twice (20 mL of medium 2) through sterile 112-μm meshes and rinsed (Stanimirovic D B, Wong J, Ball R, and Durkin J P (1995). Free radical-induced endothelial membrane dysfunction at the site of the blood-brain barrier: relationship between lipid peroxidation, Na,K-ATPase activity, and ^51Cr release. Neurochem Res 20:1417-1427.) and the latter filtrate was filtered and rinsed through a sterile 20-μm mesh. A final step of filtration and rinse was repeated through a double layer of 20-μm meshes. All 20-μm meshes, which retained the microcapillaries, were then transferred into a 50-mL tube containing 20 mL of a 0.1% collagenase/dispase (Roche) solution in medium 2 supplemented with 10 μg/mL DNAse 1 and 0.147 μg/mL tosyl-lysine-chloromethyl-ketone (Sigma Chemical Co., Oakville, Ontario, Canada) (medium 3).

| Compound | Rank of binding compared with phenylalanine |
| --- | --- |
| NC(=O)C(N)Cc1cccc(CSc2nnc(-c3ccccc3)o2)c1 (centres unmarked) [Compound 2] | 0 (X < 0 Rank 0) |
| O=C(O)C(Cc1cccc(CSc2nnc(-c3ccccc3)[nH]2)c1)NS(=O)(=O)c1ccc(F)cc1 (centres unmarked) [Compound 56] | 0 (X < 0 Rank 0) |
| Cc1nc(SCc2cccc(CC(N)C(=O)O)c2)sc1CC(=O)O (centres unmarked) [Compound 77] | 0 (X < 0 Rank 0) |
| NC(Cc1cccc(CN2CCN(c3ccccn3)CC2)c1)C(=O)O (centres unmarked) [Compound 83] | 0 (X < 0 Rank 0) |
| NC(Cc1cccc(-c2cccc(N3CCN(c4ncccn4)CC3)c2)c1)C(=O)O (centres unmarked) [Compound 84] | 0 (X < 0 Rank 0) |
| NC(Cc1cccc(CN2CCc3ccccc3C2)c1)C(=O)O (centres unmarked) [Compound 85] | 0 (X < 0 Rank 0) |
| NC(Cc1cccc(CN2CCN(c3ccc(F)cc3)CC2)n1)C(=O)O (centres unmarked) [Compound 90] | 0 (X < 0 Rank 0) |
| NC(Cc1cccc(CN2CCc3ccccc3C2)n1)C(=O)O (centres unmarked) [Compound 100] | 0 (X < 0 Rank 0) |
| Cc1nc(Sc2cccc(-c3cccc(CC(N)C(=O)O)c3)c2)sc1CC(=O)O (centres unmarked) [Compound 107] | 0 (X < 0 Rank 0) |
| NC(Cc1cccc(CSc2nnnn2CC(=O)O)c1)C(=O)O (centres unmarked) [Compound 108] | 0 (X < 0 Rank 0) |
| NC(Cc1ccc(-c2ccc(CN3CCN(c4ccccn4)CC3)cc2)cc1)C(=O)O (centres unmarked) [Compound 128] | 0 (X < 0 Rank 0) |
| NC(Cc1ccc(-c2ccc(CC3CCc4ccccc4N3)cc2)cc1)C(=O)O (centres unmarked) [Compound 130] | 0 (X < 0 Rank 0) |
| N#CC1(c2ccccc2)CCN(c2cccc(-c3cccc(CC(N)C(=O)O)c3)c2)CC1 (centres unmarked) [Compound 132] | 0 (X < 0 Rank 0) |
| CC(=O)c1ccc(N2CCN(c3cccc(-c4cccc(CC(N)C(=O)O)c4)c3)CC2)cc1 (centres unmarked) [Compound 142] | 0 (X < 0 Rank 0) |
| NC(Cc1cccc(CN2CCN(c3ncccn3)CC2)c1)C(=O)O (centres unmarked) [Compound 143] | 0 (X < 0 Rank 0) |
| NC(Cc1cccc(CN2CC=CCC2)c1)C(=O)O (centres unmarked) [Compound 145] | 0 (X < 0 Rank 0) |
| COc1ccc2[nH]c(SCc3cccc(CC(N)C(=O)O)n3)nc2c1 (centres unmarked) [Compound 150] | 0 (X < 0 Rank 0) |
| Cc1ccc(N2CCN(Cc3ccc(-c4ccc(CC(N)C(=O)O)cc4)cc3)CC2)cc1 (centres unmarked) [Compound 157] | 0 (X < 0 Rank 0) |

Second part, the molecule after the results:

| Rank of binding compared with phenylalanine | Compound |
| --- | --- |
| 0 (X < 0 Rank 0) | N[C@@H](Cc1ccccc1)C(=O)NC(Cc1cccc(CSc2nccc(C(F)(F)F)n2)n1)C(=O)O (some centres unmarked) [Compound 23] |
| 0 (X < 0 Rank 0) | NC(=O)C(N)Cc1cccc(CSc2nc3ccccc3[nH]2)n1 (centres unmarked) [Compound 28] |
| 0 (X < 0 Rank 0) | Nc1ccnc(SCc2cccc(CC(NS(=O)(=O)c3ccc(F)cc3)C(=O)O)n2)n1 (centres unmarked) [Compound 40] |
| 0 (X < 0 Rank 0) | O=C(O)C(Cc1cccc(CSc2nccc(O)n2)c1)NS(=O)(=O)c1ccc(F)cc1 (centres unmarked) [Compound 58] |
| 0 (X < 0 Rank 0) | O=C(NC(Cc1cccc(CSc2ncnc3[nH]ncc23)n1)C(=O)O)NC(c1ccccc1)c1ccccc1 (centres unmarked) [Compound 65] |
| 0 (X < 0 Rank 0) | NC(Cc1cccc(-c2cccc(Sc3ncccn3)c2)c1)C(=O)O (centres unmarked) [Compound 80] |
| 0 (X < 0 Rank 0) | Cc1ccnc(SCc2cccc(CC(N)C(=O)O)c2)n1 (centres unmarked) [Compound 106] |
| 0 (X < 0 Rank 0) | NC(Cc1cccc(CSc2ccc3ccccc3n2)n1)C(=O)O (centres unmarked) [Compound 129] |
| 0 (X < 0 Rank 0) | NC(Cc1cccc(CSc2nc(-c3ccccc3)c(-c3ccccc3)[nH]2)c1)C(=O)O (centres unmarked) [Compound 133] |
| 0 (X < 0 Rank 0) | NC(Cc1cccc(CSc2ncccn2)c1)C(=O)O (centres unmarked) [Compound 139] |
| 0 (X < 0 Rank 0) | NC(Cc1cccc(CSc2ncccc2C(=O)O)n1)C(=O)O (centres unmarked) [Compound 152] |
